Source: the supplement of paper PMC4604168 (melanoma cell lines)
This is one part of the list. Single values are uncertain, as repeats are few or missing.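 Imaging used 1,536-well plates; nuclei positive for cleaved PARP by antibody were divided by total DNA-stained nuclei to yield the apoptosis fraction. Doses for screening kept most cells viable, and cell lines differ markedly in resting and induced cleaved-PARP levels.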

How the values were obtained:
Test in all cases: cleaved PARP positive nuclei fraction relative to DMSO control; melanoma cells; higher = more apoptosis
Conditions in all cases: library dose: low library concentration; 72 h
501Mel = tested on: 501Mel
A101D = tested on: A101D
A2058 = tested on: A2058
A375 = tested on: A375
C32 = tested on: C32
CBRC008 = tested on: CBRC008 (line from a melanoma biopsy)
CBRC014 = tested on: CBRC014 (line from a melanoma biopsy)
CBRC016 = tested on: CBRC016 (line from a melanoma biopsy)
CBRC017 = tested on: CBRC017 (line from a melanoma biopsy)
CBRC034 = tested on: CBRC034 (line from a melanoma biopsy)
COLO792 = tested on: COLO792
COLO800 = tested on: COLO800
COLO829 = tested on: COLO829
G361 = tested on: G361
IPC-298 = tested on: IPC-298
IST-MEL1 = tested on: IST-MEL1
LB2518-MEL = tested on: LB2518-MEL
LOXIMVI = tested on: LOXIMVI
MEL-HO = tested on: MEL-HO
CBRC013 = tested on: CBRC013 (line from a melanoma biopsy)

Structure (SMILES)	cleaved PARP positive nuclei fraction (501Mel)	cleaved PARP positive nuclei fraction (A101D)	cleaved PARP positive nuclei fraction (A2058)	cleaved PARP positive nuclei fraction (A375)	cleaved PARP positive nuclei fraction (C32)	cleaved PARP positive nuclei fraction (CBRC008)	cleaved PARP positive nuclei fraction (CBRC014)	cleaved PARP positive nuclei fraction (CBRC016)	cleaved PARP positive nuclei fraction (CBRC017)	cleaved PARP positive nuclei fraction (CBRC034)	cleaved PARP positive nuclei fraction (COLO792)	cleaved PARP positive nuclei fraction (COLO800)	cleaved PARP positive nuclei fraction (COLO829)	cleaved PARP positive nuclei fraction (G361)	cleaved PARP positive nuclei fraction (IPC-298)	cleaved PARP positive nuclei fraction (IST-MEL1)	cleaved PARP positive nuclei fraction (LB2518-MEL)	cleaved PARP positive nuclei fraction (LOXIMVI)	cleaved PARP positive nuclei fraction (MEL-HO)	cleaved PARP positive nuclei fraction (CBRC013)
Clc1ccc(Nc2nnc(Cc3ccncc3)c3ccccc23)cc1 [vatalanib] + Nc1cccc2c1CN(C1CCC(=O)NC1=O)C2=O [lenalidomide] (first compound 2 µM, partner dose 1 µM)	78.4%	85.6%	81.2%	139%	72%	125%	111%	139%	135%	47.3%	135%	66.5%	132%	118%	87.2%	402%	98.3%	235%	88.6%	
Cn1c(Nc2ccc(C(F)(F)F)cc2)nc2cc(Oc3ccnc(-c4ncc(C(F)(F)F)[nH]4)c3)ccc21 + Cn1nnc2c(C(N)=O)ncn2c1=O [temozolomide] (first compound 0.08 µM, partner dose 2 µM)	416%	160%	239%	644%	92.4%	89.7%	104%	130%	137%	74.1%	290%	52.9%	100%	242%	265%	162%	327%	202%	38.1%	
C=CCNC1=C2C[C@@H](C)C[C@H](OC)[C@H](O)[C@@H](C)/C=C(\C)[C@H](OC(N)=O)[C@@H](OC)/C=C\C=C(/C)C(=O)NC(=CC1=O)C2=O [Tanespimycin] + Cn1c(Nc2ccc(C(F)(F)F)cc2)nc2cc(Oc3ccnc(-c4ncc(C(F)(F)F)[nH]4)c3)ccc21 [CHIR265] (first compound 0.002 µM, partner dose 0.08 µM)	266%	147%	109%	132%	83.5%	794%	139%	248%	142%	539%	438%	137%	75.9%	173%	128%	66.1%	212%	91.5%	164%	
CC(=O)c1c(C)c2cnc(Nc3ccc(N4CCNCC4)cn3)nc2n(C2CCCC2)c1=O [palbociclib] + Clc1ccc(Nc2nnc(Cc3ccncc3)c3ccccc23)cc1 [vatalanib] (first compound 0.04 µM, partner dose 2 µM)	186%	58%	50.2%	76.9%	91.7%	80.3%	128%	30%	121%	65.8%	37.7%	60%	88.6%	113%	49.2%	313%	118%	134%	179%	
OCc1c[nH]c2ccccc12 [Indole-3-carbinol] + COCC[n+]1c2c(n(Cc3cnccn3)c1C)C(=O)c1ccccc1C2=O [YM155] (first compound 0.8 µM, partner dose 0.0004 µM)	224%	44.2%	213%	97%	171%	152%	82.9%	101%	83.3%	110%	64.2%	64.3%	54.1%	55%	95.6%	92.7%	120%	99.2%	39.8%	
C=CCNC1=C2C[C@@H](C)C[C@H](OC)[C@H](O)[C@@H](C)/C=C(\C)[C@H](OC(N)=O)[C@@H](OC)/C=C\C=C(/C)C(=O)NC(=CC1=O)C2=O [Tanespimycin] + C#Cc1cccc(Nc2ncnc3cc(OCCOC)c(OCCOC)cc23)c1 [erlotinib] (first compound 0.002 µM, partner dose 0.8 µM)	146%	92.1%	64.1%	136%	165%	160%	136%	99.8%	140%	55.5%	176%	117%	209%	118%	90.6%	86.4%	112%	142%	121%	
OCc1c[nH]c2ccccc12 [Indole-3-carbinol] + Cn1c(Nc2ccc(C(F)(F)F)cc2)nc2cc(Oc3ccnc(-c4ncc(C(F)(F)F)[nH]4)c3)ccc21 [CHIR265] (first compound 0.8 µM, partner dose 0.08 µM)	150%	149%	102%	650%	78.9%	153%	98.5%	59%	122%	1580%	299%	99.2%	65.6%	162%	141%	135%	407%	117%	71.7%	
C=CCNC1=C2C[C@@H](C)C[C@H](OC)[C@H](O)[C@@H](C)/C=C(\C)[C@H](OC(N)=O)[C@@H](OC)/C=C\C=C(/C)C(=O)NC(=CC1=O)C2=O [Tanespimycin] + Nc1cccc2c1CN(C1CCC(=O)NC1=O)C2=O [lenalidomide] (first compound 0.002 µM, partner dose 1 µM)	65.4%	51%	133%	105%	118%	109%	104%	228%	92.8%	60.7%	132%	122%	137%	178%	115%	120%	106%	284%	293%	
C=CCNC1=C2C[C@@H](C)C[C@H](OC)[C@H](O)[C@@H](C)/C=C(\C)[C@H](OC(N)=O)[C@@H](OC)/C=C\C=C(/C)C(=O)NC(=CC1=O)C2=O [Tanespimycin] + COc1ccc(Cl)c(Nc2nc3ccccc3nc2NS(=O)(=O)c2cccc(NC(=O)C(C)(C)N)c2)c1 [XL147] (first compound 0.002 µM, partner dose 0.8 µM)	84.1%	50.5%	93.4%	37%	368%	193%	104%	162%	152%	32.3%	214%	62.7%	105%	112%	91.2%	83.3%	56.7%	127%	86.9%	
C[C@]1(c2nc3c(C(N)=O)cccc3[nH]2)CCCN1 [Veliparib] + Cn1nnc2c(C(N)=O)ncn2c1=O [temozolomide] (first compound 1.4 µM, partner dose 2 µM)	81.6%	44.6%	133%	176%	74.5%	65.3%	180%	106%	81.1%	112%	147%	76.9%	97%	137%	172%	202%	59.5%	86.9%	183%	
C#Cc1cccc(Nc2ncnc3cc(OCCOC)c(OCCOC)cc23)c1 [erlotinib] + CN(C)S(=O)(=O)c1ccc2c(c1)/C(=C/c1cc3c([nH]1)CCCC3)C(=O)N2 [SU6656] (first compound 0.8 µM, partner dose 0.4 µM)	428%	105%	96.9%	81.9%	187%	41.6%	67.7%	75.3%	131%		107%	30.1%	80.1%	89.7%	32.7%	96.5%	174%	20.8%	71.3%	128%
Cc1nc(Nc2ncc(C(=O)Nc3c(C)cccc3Cl)s2)cc(N2CCN(CCO)CC2)n1 [dasatanib] + Cn1c(Nc2ccc(C(F)(F)F)cc2)nc2cc(Oc3ccnc(-c4ncc(C(F)(F)F)[nH]4)c3)ccc21 [CHIR265] (first compound 0.004 µM, partner dose 0.08 µM)	131%	173%	202%	406%	69.9%	104%	102%	124%	116%	618%	575%	35%	144%	161%	156%	222%	195%	115%	95.8%	
C#Cc1cccc(Nc2ncnc3cc(OCCOC)c(OCCOC)cc23)c1 [erlotinib] + Cn1nnc2c(C(N)=O)ncn2c1=O [temozolomide] (first compound 0.8 µM, partner dose 2 µM)	122%	98.5%	88.2%	142%	93.7%	68.4%	106%	129%	88.9%	73.1%	119%	83.2%	106%	150%	135%	41.5%	116%	82.7%	117%	
Clc1ccc(Nc2nnc(Cc3ccncc3)c3ccccc23)cc1 [vatalanib] + Cn1nnc2c(C(N)=O)ncn2c1=O [temozolomide] (first compound 2 µM, partner dose 2 µM)	107%	99.1%	140%	194%	79.6%	52.1%	139%	129%	111%	139%	145%	105%	19.2%	132%	178%	68.6%	59.7%	504%	22.1%	
C=CCn1c(=O)c2cnc(Nc3ccc(N4CCN(C)CC4)cc3)nc2n1-c1cccc(C(C)(C)O)n1 + CCc1ccc(CCOc2ccc(CC3SC(=O)NC3=O)cc2)nc1 [pioglitazone] (first compound 0.02 µM, partner dose 2 µM)	182%	76.6%	69.8%	326%	85.2%		114%	81.2%	106%	180%	84.7%	116%	112%	288%	88.8%	44.8%	112%	98.6%		166%
Nc1cccc2c1CN(C1CCC(=O)NC1=O)C2=O (stereo unspecified) [lenalidomide] + O=S(=O)(c1ccccc1)N(CC(F)(F)F)c1ccc(C(O)(C(F)(F)F)C(F)(F)F)cc1 [T0901317] (first compound 1 µM, partner dose 1.4 µM)	45.9%	74.7%	114%	143%	102%		193%	60.8%	77.3%	40.1%	134%	562%	178%	66.8%	62%	47.1%	151%	48.2%		180%
CC1(C)NC(=O)N(c2ccc([N+](=O)[O-])c(C(F)(F)F)c2)C1=O [nilutamide] + O=C(O)C(=O)Nc1sc2c(c1C(=O)O)CCNC2 [TCS401] (first compound 1 µM, partner dose 1.66667 µM)	68.7%	223%	190%	124%	115%		83.6%	84.3%	71%	82.9%	65%	135%	134%	74.7%	38.9%	39.3%	81.8%	70.4%		96.2%
CC(=O)c1c(C)c2cnc(Nc3ccc(N4CCNCC4)cn3)nc2n(C2CCCC2)c1=O [palbociclib] + Nc1cccc2c1CN(C1CCC(=O)NC1=O)C2=O [lenalidomide] (first compound 0.04 µM, partner dose 1 µM)	190%	44.5%	103%	394%	91.5%	29.9%	108%	104%	122%	83.9%	178%	153%	103%	92%	187%	53.9%	130%	177%	93.4%	
CC(=O)c1c(C)c2cnc(Nc3ccc(N4CCNCC4)cn3)nc2n(C2CCCC2)c1=O [palbociclib] + COCC[n+]1c2c(n(Cc3cnccn3)c1C)C(=O)c1ccccc1C2=O [YM155] (first compound 0.04 µM, partner dose 0.0004 µM)	112%	129%	199%	264%	26200%	669%	124%	153%	124%	70.9%	258%	145%	66.6%	92.4%	109%	29.3%	136%	32.5%	110%	
O=C(Nc1cccc(Cl)c1)Nc1ncc(CCNc2ncnc3ccsc23)s1 + Cn1cc(/C=C2\C(=O)Nc3cccnc32)c2ccccc21 [GW441756] (first compound 0.0008 µM, partner dose 0.4 µM)	213%	184%	80.9%	142%	43.2%		96.6%	128%	83.5%	86.9%	60.7%	131%	120%	123%	81.2%	113%	126%	58.8%		185%

Five entries from above, comma-delimited.
Structure (SMILES),cleaved PARP positive nuclei fraction (501Mel),cleaved PARP positive nuclei fraction (A101D),cleaved PARP positive nuclei fraction (A2058),cleaved PARP positive nuclei fraction (A375),cleaved PARP positive nuclei fraction (C32),cleaved PARP positive nuclei fraction (CBRC008),cleaved PARP positive nuclei fraction (CBRC014),cleaved PARP positive nuclei fraction (CBRC016),cleaved PARP positive nuclei fraction (CBRC017),cleaved PARP positive nuclei fraction (CBRC034),cleaved PARP positive nuclei fraction (COLO792),cleaved PARP positive nuclei fraction (COLO800),cleaved PARP positive nuclei fraction (COLO829),cleaved PARP positive nuclei fraction (G361),cleaved PARP positive nuclei fraction (IPC-298),cleaved PARP positive nuclei fraction (IST-MEL1),cleaved PARP positive nuclei fraction (LB2518-MEL),cleaved PARP positive nuclei fraction (LOXIMVI),cleaved PARP positive nuclei fraction (MEL-HO),cleaved PARP positive nuclei fraction (CBRC013)
"Clc1ccc(Nc2nnc(Cc3ccncc3)c3ccccc23)cc1 [vatalanib] + Cn1nnc2c(C(N)=O)ncn2c1=O [temozolomide] (first compound 2 µM, partner dose 2 µM)",107%,99.1%,140%,194%,79.6%,52.1%,139%,129%,111%,139%,145%,105%,19.2%,132%,178%,68.6%,59.7%,504%,22.1%,
"C=CCn1c(=O)c2cnc(Nc3ccc(N4CCN(C)CC4)cc3)nc2n1-c1cccc(C(C)(C)O)n1 + CCc1ccc(CCOc2ccc(CC3SC(=O)NC3=O)cc2)nc1 [pioglitazone] (first compound 0.02 µM, partner dose 2 µM)",182%,76.6%,69.8%,326%,85.2%,,114%,81.2%,106%,180%,84.7%,116%,112%,288%,88.8%,44.8%,112%,98.6%,,166%
"Nc1cccc2c1CN(C1CCC(=O)NC1=O)C2=O (stereo unspecified) [lenalidomide] + O=S(=O)(c1ccccc1)N(CC(F)(F)F)c1ccc(C(O)(C(F)(F)F)C(F)(F)F)cc1 [T0901317] (first compound 1 µM, partner dose 1.4 µM)",45.9%,74.7%,114%,143%,102%,,193%,60.8%,77.3%,40.1%,134%,562%,178%,66.8%,62%,47.1%,151%,48.2%,,180%
"CC1(C)NC(=O)N(c2ccc([N+](=O)[O-])c(C(F)(F)F)c2)C1=O [nilutamide] + O=C(O)C(=O)Nc1sc2c(c1C(=O)O)CCNC2 [TCS401] (first compound 1 µM, partner dose 1.66667 µM)",68.7%,223%,190%,124%,115%,,83.6%,84.3%,71%,82.9%,65%,135%,134%,74.7%,38.9%,39.3%,81.8%,70.4%,,96.2%
"CC(=O)c1c(C)c2cnc(Nc3ccc(N4CCNCC4)cn3)nc2n(C2CCCC2)c1=O [palbociclib] + Nc1cccc2c1CN(C1CCC(=O)NC1=O)C2=O [lenalidomide] (first compound 0.04 µM, partner dose 1 µM)",190%,44.5%,103%,394%,91.5%,29.9%,108%,104%,122%,83.9%,178%,153%,103%,92%,187%,53.9%,130%,177%,93.4%,
